The source of these data is PMC10598138.

Amino acid sequences for entries named in this document (tags omitted).
UniProt Q3ZCM7: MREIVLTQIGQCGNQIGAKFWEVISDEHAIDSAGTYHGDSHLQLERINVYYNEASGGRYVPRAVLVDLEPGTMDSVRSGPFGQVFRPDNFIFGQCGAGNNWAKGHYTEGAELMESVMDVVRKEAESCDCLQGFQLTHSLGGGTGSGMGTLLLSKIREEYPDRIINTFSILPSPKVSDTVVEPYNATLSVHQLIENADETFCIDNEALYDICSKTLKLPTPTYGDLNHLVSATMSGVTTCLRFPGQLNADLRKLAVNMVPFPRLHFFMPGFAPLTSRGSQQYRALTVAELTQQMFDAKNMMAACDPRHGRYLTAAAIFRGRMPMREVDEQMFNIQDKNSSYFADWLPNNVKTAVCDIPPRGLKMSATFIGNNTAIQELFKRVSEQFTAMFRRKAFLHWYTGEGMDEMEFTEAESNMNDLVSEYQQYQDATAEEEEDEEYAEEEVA
UniProt P04350: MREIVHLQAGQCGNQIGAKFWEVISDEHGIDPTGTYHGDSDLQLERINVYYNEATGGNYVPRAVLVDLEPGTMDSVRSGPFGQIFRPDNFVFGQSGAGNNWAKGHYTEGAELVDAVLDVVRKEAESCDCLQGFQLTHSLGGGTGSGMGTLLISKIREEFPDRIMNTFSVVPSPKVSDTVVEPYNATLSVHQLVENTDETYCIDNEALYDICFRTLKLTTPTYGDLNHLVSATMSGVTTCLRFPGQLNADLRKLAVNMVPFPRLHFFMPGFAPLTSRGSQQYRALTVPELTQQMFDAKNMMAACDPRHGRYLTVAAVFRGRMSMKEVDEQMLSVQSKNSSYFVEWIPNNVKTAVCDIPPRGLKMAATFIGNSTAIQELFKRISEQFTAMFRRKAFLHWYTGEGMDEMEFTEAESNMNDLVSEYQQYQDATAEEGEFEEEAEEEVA
UniProt P52732: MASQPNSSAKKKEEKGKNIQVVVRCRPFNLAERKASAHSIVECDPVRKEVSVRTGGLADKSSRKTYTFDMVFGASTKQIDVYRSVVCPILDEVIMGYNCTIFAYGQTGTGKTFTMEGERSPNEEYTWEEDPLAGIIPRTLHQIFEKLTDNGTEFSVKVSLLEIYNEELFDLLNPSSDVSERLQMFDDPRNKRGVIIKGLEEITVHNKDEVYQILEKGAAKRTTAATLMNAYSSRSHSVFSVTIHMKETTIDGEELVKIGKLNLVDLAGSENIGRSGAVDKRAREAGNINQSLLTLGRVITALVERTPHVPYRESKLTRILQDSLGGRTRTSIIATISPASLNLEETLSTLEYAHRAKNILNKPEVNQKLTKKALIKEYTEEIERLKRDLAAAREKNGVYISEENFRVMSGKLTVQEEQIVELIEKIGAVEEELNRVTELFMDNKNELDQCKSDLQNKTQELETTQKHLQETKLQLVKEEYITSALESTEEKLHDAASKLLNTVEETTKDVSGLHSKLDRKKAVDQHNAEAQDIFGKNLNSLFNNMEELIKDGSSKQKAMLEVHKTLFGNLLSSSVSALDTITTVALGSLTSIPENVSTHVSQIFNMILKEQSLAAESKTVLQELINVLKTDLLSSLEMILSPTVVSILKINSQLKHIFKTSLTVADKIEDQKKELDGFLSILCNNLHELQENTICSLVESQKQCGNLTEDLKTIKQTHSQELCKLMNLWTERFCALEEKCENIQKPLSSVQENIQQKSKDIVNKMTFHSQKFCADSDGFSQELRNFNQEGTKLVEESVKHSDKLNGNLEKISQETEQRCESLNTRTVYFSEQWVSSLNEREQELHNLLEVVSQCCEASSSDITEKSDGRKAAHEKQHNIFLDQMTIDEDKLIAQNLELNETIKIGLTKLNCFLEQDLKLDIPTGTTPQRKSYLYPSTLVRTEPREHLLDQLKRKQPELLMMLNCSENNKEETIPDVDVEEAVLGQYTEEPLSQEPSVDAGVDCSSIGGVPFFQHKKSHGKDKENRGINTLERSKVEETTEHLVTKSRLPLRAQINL

Results are given in words; binding and its absence hold for the method and conditions named. Binding seen in cells or lysates may run through a third protein. Some binding calls cover weakened binding; strength is not graded here.

Test [1] addresses 5'FLAG-TUBB8 (human beta-tubulin isotype TUBB8) (human) (UniProt Q3ZCM7). As to the kind of experiment: co-IP; HEK293T cells co-transfected with 5'HA-KIF11 and 5'FLAG-TUBB8 or 5'FLAG-TUBB4A; NP-40 lysis buffer (0.5% NP-40, 50 mM Tris, 150 mM NaCl, pH 7.5); lysate incubated with FLAG-IgG agarose beads 3 h at 4 °C; HA-KIF11 detected by western blot. (In western blotting, separated proteins are transferred to a membrane and probed.)

In test [2] the target is 5'FLAG-TUBB4A (human beta-tubulin isotype TUBB4A) (human) (UniProt P04350). The test is described as above.

On to “5'HA-KIF11 (human kinesin family member 11) (from UniProt P52732 1-1056)”, for which the binding result in test [1] and in test [2] was “binds” in each case.
